Measured values published in publication PMC8268348.
These are yes or no findings as the source states them, for the method shown. In cells and extracts the contact can be indirect. Some results given as binding are weak or reduced against the parent protein; the word gives no strength.

By UniProt entry, the sequences of proteins in these tests, tags left out.
UniProt P61026: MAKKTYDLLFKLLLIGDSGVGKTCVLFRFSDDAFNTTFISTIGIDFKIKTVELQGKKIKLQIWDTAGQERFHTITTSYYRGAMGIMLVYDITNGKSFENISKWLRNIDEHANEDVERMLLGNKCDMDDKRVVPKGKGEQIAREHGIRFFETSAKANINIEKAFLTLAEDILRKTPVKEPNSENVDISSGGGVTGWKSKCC
UniProt P21439: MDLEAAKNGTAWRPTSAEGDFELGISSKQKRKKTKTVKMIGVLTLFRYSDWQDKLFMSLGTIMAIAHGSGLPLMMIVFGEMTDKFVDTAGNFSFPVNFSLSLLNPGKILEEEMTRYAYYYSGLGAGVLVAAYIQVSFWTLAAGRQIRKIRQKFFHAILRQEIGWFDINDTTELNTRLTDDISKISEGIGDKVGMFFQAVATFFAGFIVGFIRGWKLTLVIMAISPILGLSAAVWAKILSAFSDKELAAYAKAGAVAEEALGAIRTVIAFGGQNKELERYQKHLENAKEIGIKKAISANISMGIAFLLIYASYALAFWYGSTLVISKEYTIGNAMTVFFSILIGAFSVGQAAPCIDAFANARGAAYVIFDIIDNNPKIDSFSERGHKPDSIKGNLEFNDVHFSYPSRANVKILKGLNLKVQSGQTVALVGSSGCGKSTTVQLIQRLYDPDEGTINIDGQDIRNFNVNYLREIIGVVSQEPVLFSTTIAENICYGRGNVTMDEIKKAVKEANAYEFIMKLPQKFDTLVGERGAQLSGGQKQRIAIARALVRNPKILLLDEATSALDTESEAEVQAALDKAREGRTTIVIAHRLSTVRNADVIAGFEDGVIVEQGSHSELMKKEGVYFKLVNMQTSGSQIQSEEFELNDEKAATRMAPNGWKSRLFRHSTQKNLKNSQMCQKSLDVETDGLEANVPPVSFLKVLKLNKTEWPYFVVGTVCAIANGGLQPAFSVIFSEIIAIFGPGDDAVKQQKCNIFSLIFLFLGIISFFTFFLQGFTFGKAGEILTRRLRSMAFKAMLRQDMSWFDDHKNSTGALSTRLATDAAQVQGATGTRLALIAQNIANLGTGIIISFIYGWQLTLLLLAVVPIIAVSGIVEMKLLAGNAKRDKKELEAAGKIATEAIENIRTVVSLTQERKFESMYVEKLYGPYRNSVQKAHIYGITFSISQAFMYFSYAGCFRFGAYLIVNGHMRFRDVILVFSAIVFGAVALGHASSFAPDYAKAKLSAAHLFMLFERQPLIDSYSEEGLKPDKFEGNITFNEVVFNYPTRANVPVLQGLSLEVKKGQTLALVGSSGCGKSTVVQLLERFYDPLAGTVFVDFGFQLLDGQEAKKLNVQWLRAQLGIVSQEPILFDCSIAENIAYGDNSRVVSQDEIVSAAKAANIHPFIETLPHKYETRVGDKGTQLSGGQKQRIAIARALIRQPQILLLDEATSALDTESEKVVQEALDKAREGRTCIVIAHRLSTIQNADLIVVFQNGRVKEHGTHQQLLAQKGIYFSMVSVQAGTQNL

Experiments:
[1] = target: RAB10 (human (endogenous in primary human hepatocytes)) (UniProt P61026); test: co-IP; endogenous ABCB4 or RAB10 immunoprecipitated from primary human hepatocyte lysates with specific antibodies; control with unspecific antibodies; immunoblot
[2] = target: RAB10-GFP (pEGFP-RAB10-WT) (human) (UniProt P61026); test: co-IP; HEK cells co-expressing RAB10-GFP and ABCB4; GFP or ABCB4 immunoprecipitated with specific antibodies; control with unspecific antibodies; immunoblot
[3] = target: ABCB4 (ATP-binding cassette subfamily B member 4) (human (endogenous in primary human hepatocytes)) (UniProt P21439); test: co-IP; endogenous ABCB4 or RAB10 immunoprecipitated from primary human hepatocyte lysates with specific antibodies; control with unspecific antibodies; immunoblot
[4] = target: ABCB4 (pcDNA3-ABCB4) (human) (UniProt P21439); test: co-IP; HEK cells co-expressing RAB10-GFP and ABCB4; GFP or ABCB4 immunoprecipitated with specific antibodies; control with unspecific antibodies; immunoblot

How did the binding [1] turn out when “ABCB4 (ATP-binding cassette subfamily B member 4) (from UniProt P21439 1-1286)” was run?
The binding was “binds”.

Which binding [2] does the source give for “ABCB4 (pcDNA3-ABCB4) (from UniProt P21439 1-1286)” here?
Its binding is “binds”.

With RAB10 (from UniProt P61026 1-200) as the substance, how does the binding [3] read?
The binding was “binds”.

With “RAB10-GFP (pEGFP-RAB10-WT) (from UniProt P61026 1-200)” as the substance, how does the binding [4] read?
Its binding is “binds”.
